Earlier results, collected in patent US7875422B2, “Viral drug susceptibility testing” (Cavidi AB, priority 2001, dated 2011).
Like-named read-outs stand apart in the source and are kept apart here. At least one compound was matched to its structure with a doubt left.

System: HIV 1 virus with the corresponding RT modification
Parameters: key: S = sensitive; L = Low level resistance (2–10 times increase in inhibitory dose); I = Intermediate resistance (10–100 times increase); H = High level resistance (>100 times increase)
Conditions: phenotype data from literature, cited from earlier work

## CC(C)Nc1cccnc1N1CCN(C(=O)c2cc3cc(NS(C)(=O)=O)ccc3[nH]2)CC1 [Delaviridine, 1-(5-methanesulphonamido-1H-indol-2-yl-carbonyl)-4-[3-(1-methylethyl-amino)pyridinyl]piperazine monomethane sulphonate]
Virus with K103N
  Sensitivity of the corresponding virus: H (H = High level resistance (>100 times increase))
Virus with L100I/K103N
  Sensitivity of the corresponding virus: H (H = High level resistance (>100 times increase))
Virus with L100I
  Sensitivity of the corresponding virus: I (I = Intermediate resistance (10–100 times increase))
Wild type BH10, NNRTIs
  Sensitivity of the corresponding virus: S
Wild type HxB2, NNRTIs
  Sensitivity of the corresponding virus: S
